Laboratory results published in patent US20220251084A1, “PROGRANULIN MODULATORS AND METHODS OF USING THE SAME” (ARKUDA THERAPEUTICS, priority 2019, published 2022).
At least one structure is not confirmed: it was looked up by name or label, or the drawing left a doubt.

System: progranulin (PGRN) secretion, BV-2 cells
Test: PGRN assay: progranulin induction cellular assay (ELISA of secreted mouse PGRN)
Assay type: cell-based
Description: Cellular Assays: To measure the efficacy of compounds, a progranulin induction cellular assay in mouse primary microglia (pMG), primary cortical neurons, and BV-2 cell lines is used. BV-2 cells are split the day before plating into a 96 well plate format at approximately 80%. Cells should be plated the day before and allowed for 1 hour attachment period and for 16 hour incubation. […] Standard ELISA kits to measure PGRN are available from vendors such as Adipogen, R&D, and Biovendor.

## CN1CC(C2c3ccccc3CCN2C(=O)O[C@@H]2CN3CCC2CC3)CCC1=O (stereo partly shown) [Compound 2006]
  EC50: > 10 µM
